Data: patent publication US20190117791A1 (NAVIGO PROTEINS, published 2019)

Tests used:
[1] = molecular target: T1, hEGFR-Fc (human, UniProt P00533 25-645); assay: SPR (Biacore 3000), hEGFR-Fc captured on rProtein A, fusion protein as analyte, Langmuir 1:1
T1 construct: Captured on rProtein A immobilised on a CM5 chip; not shown: Fc part

[2] = molecular target: T1, hEGFR-Fc; assay: method not given; Example 7 lists SPR on hEGFR-Fc for this Affilin

Binder | Kd [1] [nM] | Kd [2] [nM]
fusion protein 143276 (designed binder, EGFR-specific Affilin fused to 2 Ala/Pro/Ser linkers, each with a C-terminal Cys, and a cap; Unlabelled form; also called CID143276; Affilin-(APS-Cys)2-cap) MQIFVKTLTYNPMRYGKTITLEVEPSDTIENVKAKIQDKEGIPPDQQRLIWAGKQLEDGRTLSDYNIRNPDILHLVLRLRAASAPAPSAPAASAPPAPAAPAAPAAPASAPAPAPAPAASPSPAAPAPSPACPAPASPASAPSAPASAPPAAPSAACSPAPSAPAPAASPAAAPASAAPASA | 26 | –
EGFR-specific Affilin-139819 (designed binder, Ubiquitin mutein used as targeting domain of the EGFR-specific fusion proteins) MQIFVKTLTYNPMRYGKTITLEVEPSDTIENVKAKIQDKEGIPPDQQRLIWAGKQLEDGRTLSDYNIRNPDILHLVLRLRAA | – | ~20
